Screening data

Data taken from PubChem BioAssay AID971, deposited by NCATS (2007).

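Human lymphoblastoid line LYMP2-015, cultured 24 h with compound; viability judged by ATP-driven luciferase light, giving a fitted cell-killing AC50. Compounds were run as a dilution series from 0.59 nM up to 92 µM. The number is the fitted AC50 for the fall in viability; a lower value means stronger, more potent cytotoxicity. Calls come from the dose-curve class and the fitted log AC50: activity scores of 40–100 are active, 1–39 inconclusive, and 0 inactive.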

Values are in nM. All entries here are filed as inconclusive. These entries are mostly ones the record files as inconclusive; other results of the assay are not listed here. A potency from a partial, single-point or poor curve is only a rough figure. Some entries filed as inconclusive have a full curve. Activity scores are not listed here.

SMILES | fitted potency (nM) | curve
O=C1c2ccccc2C(=O)C1(O)O | 50118 | cytotoxic, partial curve, poor fit
N=C(N)c1ccc(OCCCCCOc2ccc(C(=N)N)cc2)cc1 | 31622 | cytotoxic, partial curve, poor fit
C=CC(=O)OCC(CC)CCCC (stereo not shown) | 15848 | cytotoxic, partial curve, poor fit
COC(=O)[C@H]1[C@H]2C[C@@H]3c4[nH]c5cc(OC)ccc5c4CCN3C[C@H]2C[C@@H](OC(=O)c2cc(OC)c(OC)c(OC)c2)[C@@H]1OC | 50118 | cytotoxic, partial curve, poor fit
Cc1c2ccccc2c(C)c2c1ccc1ccccc12 | 63095 | cytotoxic, partial curve, poor fit
CC(C)(C)C(=O)C1C(=O)c2ccccc2C1=O | 50118 | cytotoxic, partial curve, poor fit
COC(=O)Nc1nc2ccccc2[nH]1 | 12589 | cytotoxic, full curve